Further values from the same series stand in other lists.
Test: Particle size distribution by laser diffraction (Malvern Panalytical Mastersizer 3000, Fraunhofer)
Format: physicochemical
Description: The particle size distribution was measured by laser diffraction using the Malvern Panalytical Mastersizer 3000.
The samples are again taken from example 1.6 (probe 1) and example 1.5 (probe 2), the same as used in example 4.
The sample to be analyzed is dispersed in 1 drop of Tween 80 the sample is processed according to ISO13320.
Laser diffraction is an often-used method for determination the particle size of dispersed solid materials. A widened laser beam illuminates a cuvette which contains part of the particles. By diffraction on the particles a characteristic pattern can be mapped on the detector. The resulting diffraction image is the additive overlaying of diffraction images of all particles.
Besides the mentioned detector two additional detectors are mounted in order to detect diffraction light in forward direction (FA1,9), in wide angle (LA1,2) and in back direction (BS1,2). The turbidity of the sample is measured by an extinction sensor. This is necessary to ensure a low particle concentration which is necessary to avoid wrong results by multiple diffraction of light at several particles.
The cuvette used was a wet unit where the suspension is pumped in a closed circuit with a dispersing unit that ensures a separation of single particles by shear forces.
The measurement range of the Malvern 3000 covers a particle size from 1 mm (2 mm) down to 20 nm
The calculation of the particle size distribution from the diffraction patterns was done on basis of theory of Fraunhofer.
This assumption is valid for particle sizes of 10 to 50 μm and above. For smaller particles the light scattering of the particle itself due to optical transparency must be considered which is done in the Mie-theory (not used for our probes). Precondition of the application of the Mie-theory is the knowledge of the refractive and absorption index of the dispersed solids.
Q3 is the cumulative volume distribution, e.g. D50=Q(50%) indicates 50% of the volume part of the sample is smaller than particle size of 50 μm.
The particle size is expressed as an equivalent diameter used in the method recommended by the Malvern Analysis Program and as described in ISO13320.

Cumulative volume distribution Q (particle size D 0.0463 μm, 300 s US): 0%
Cumulative volume distribution Q (particle size D 0.0463 μm, without US): 0%
Cumulative volume distribution Q (particle size D 0.0526 μm, 300 s US): 0%
Cumulative volume distribution Q (particle size D 0.0526 μm, without US): 0%
Cumulative volume distribution Q (particle size D 0.0597 μm, 300 s US): 0%
Cumulative volume distribution Q (particle size D 0.0597 μm, without US): 0%
Cumulative volume distribution Q (particle size D 0.0679 μm, 300 s US): 0%
Cumulative volume distribution Q (particle size D 0.0679 μm, without US): 0%
Cumulative volume distribution Q (particle size D 0.0771 μm, 300 s US): 0%
Cumulative volume distribution Q (particle size D 0.0771 μm, without US): 0%
Cumulative volume distribution Q (particle size D 0.0876 μm, 300 s US): 0%
Cumulative volume distribution Q (particle size D 0.0876 μm, without US): 0%
Cumulative volume distribution Q (particle size D 0.0995 μm, 300 s US): 0%
Cumulative volume distribution Q (particle size D 0.0995 μm, without US): 0%
Cumulative volume distribution Q (particle size D 0.113 μm, 300 s US): 0%
Cumulative volume distribution Q (particle size D 0.113 μm, without US): 0%
Cumulative volume distribution Q (particle size D 0.128 μm, 300 s US): 0%
Cumulative volume distribution Q (particle size D 0.128 μm, without US): 0%
Cumulative volume distribution Q (particle size D 0.146 μm, 300 s US): 0%
Cumulative volume distribution Q (particle size D 0.146 μm, without US): 0%
Cumulative volume distribution Q (particle size D 0.166 μm, 300 s US): 0%
Cumulative volume distribution Q (particle size D 0.166 μm, without US): 0%
Cumulative volume distribution Q (particle size D 0.188 μm, 300 s US): 0%
Cumulative volume distribution Q (particle size D 0.188 μm, without US): 0%
Cumulative volume distribution Q (particle size D 0.214 μm, 300 s US): 0%
Cumulative volume distribution Q (particle size D 0.214 μm, without US): 0%
Cumulative volume distribution Q (particle size D 0.243 μm, 300 s US): 0%
Cumulative volume distribution Q (particle size D 0.243 μm, without US): 0%
Cumulative volume distribution Q (particle size D 0.276 μm, 300 s US): 0%
Cumulative volume distribution Q (particle size D 0.276 μm, without US): 0%
Cumulative volume distribution Q (particle size D 0.314 μm, 300 s US): 0%
Cumulative volume distribution Q (particle size D 0.314 μm, without US): 0%
Cumulative volume distribution Q (particle size D 0.357 μm, 300 s US, listed as Probe 1): 0.06%
Cumulative volume distribution Q (particle size D 0.357 μm, without US): 0%
Cumulative volume distribution Q (particle size D 0.405 μm, 300 s US, listed as Probe 1): 0.15%
Cumulative volume distribution Q (particle size D 0.405 μm, without US): 0%
Cumulative volume distribution Q (particle size D 0.46 μm, 300 s US, listed as Probe 1): 0.27%
Cumulative volume distribution Q (particle size D 0.46 μm, without US): 0%
Cumulative volume distribution Q (particle size D 0.523 μm, 300 s US, listed as Probe 1): 0.42%
Cumulative volume distribution Q (particle size D 0.523 μm, without US): 0%
Cumulative volume distribution Q (particle size D 0.594 μm, 300 s US, listed as Probe 1): 0.62%
Cumulative volume distribution Q (particle size D 0.594 μm, without US): 0%
Cumulative volume distribution Q (particle size D 0.675 μm, 300 s US, listed as Probe 1): 0.85%
Cumulative volume distribution Q (particle size D 0.675 μm, without US): 0%
Cumulative volume distribution Q (particle size D 0.767 μm, 300 s US, listed as Probe 1): 1.14%
Cumulative volume distribution Q (particle size D 0.767 μm, without US): 0%
Cumulative volume distribution Q (particle size D 0.872 μm, 300 s US, listed as Probe 1): 1.46%
Cumulative volume distribution Q (particle size D 0.872 μm, without US): 0%
Cumulative volume distribution Q (particle size D 0.991 μm, 300 s US, listed as Probe 1): 1.84%
Cumulative volume distribution Q (particle size D 0.991 μm, without US): 0%
Cumulative volume distribution Q (particle size D 1.13 μm, 300 s US, listed as Probe 1): 2.26%
Cumulative volume distribution Q (particle size D 1.13 μm, without US): 0%
Cumulative volume distribution Q (particle size D 1.28 μm, 300 s US, listed as Probe 1): 2.74%
Cumulative volume distribution Q (particle size D 1.28 μm, without US): 0%
Cumulative volume distribution Q (particle size D 1.45 μm, 300 s US, listed as Probe 1): 3.26%
Cumulative volume distribution Q (particle size D 1.45 μm, without US): 0%
Cumulative volume distribution Q (particle size D 1.65 μm, 300 s US, listed as Probe 1): 3.84%
Cumulative volume distribution Q (particle size D 1.65 μm, without US, listed as Probe 1): 0.07%
Cumulative volume distribution Q (particle size D 1.88 μm, 300 s US, listed as Probe 1): 4.48%
Cumulative volume distribution Q (particle size D 1.88 μm, without US, listed as Probe 1): 0.14%
Cumulative volume distribution Q (particle size D 2.13 μm, 300 s US, listed as Probe 1): 5.18%
Cumulative volume distribution Q (particle size D 2.13 μm, without US, listed as Probe 1): 0.23%
Cumulative volume distribution Q (particle size D 2.42 μm, 300 s US, listed as Probe 1): 5.97%
Cumulative volume distribution Q (particle size D 2.42 μm, without US, listed as Probe 1): 0.32%
Cumulative volume distribution Q (particle size D 2.75 μm, 300 s US, listed as Probe 1): 6.84%
Cumulative volume distribution Q (particle size D 2.75 μm, without US, listed as Probe 1): 0.43%
Cumulative volume distribution Q (particle size D 3.12 μm, 300 s US, listed as Probe 1): 7.8%
Cumulative volume distribution Q (particle size D 3.12 μm, without US, listed as Probe 1): 0.56%
Cumulative volume distribution Q (particle size D 3.55 μm, 300 s US, listed as Probe 1): 8.87%
Cumulative volume distribution Q (particle size D 3.55 μm, without US, listed as Probe 1): 0.69%
Cumulative volume distribution Q (particle size D 4.03 μm, 300 s US, listed as Probe 1): 10.03%
Cumulative volume distribution Q (particle size D 4.03 μm, without US, listed as Probe 1): 0.84%
Cumulative volume distribution Q (particle size D 4.58 μm, 300 s US, listed as Probe 1): 11.28%
Cumulative volume distribution Q (particle size D 4.58 μm, without US, listed as Probe 1): 1.01%
Cumulative volume distribution Q (particle size D 5.21 μm, 300 s US, listed as Probe 1): 12.61%
Cumulative volume distribution Q (particle size D 5.21 μm, without US, listed as Probe 1): 1.18%
Structure (SMILES): C[C@@H]1OC(=O)NN=C1c1ccc(-c2ccc(F)cc2)c(C(F)(F)F)c1 [polymorph A, (6S)-5-[4′-Fluoro-2-(trifluoromethyl)biphenyl-4-yl]-6-methyl-3,6-dihydro-2H-1,3,4-oxadiazin-2-one]
